No constants are given. Whether binding was seen depends on the method and setting. In cells and extracts the contact can be indirect. Some entries that bind do so weakly or less than the wild type.
Key:
[1] = biological target: T1, ATP13A2 (human (endogenous in HeLa)) (UniProt Q9NQ11); assay: proximity ligation; fixed, permeabilised HeLa cells; primary antibodies against ATP13A2 and MYCBP2; signal when the two proteins are within 40 nm; epifluorescence microscopy
T1 sequence: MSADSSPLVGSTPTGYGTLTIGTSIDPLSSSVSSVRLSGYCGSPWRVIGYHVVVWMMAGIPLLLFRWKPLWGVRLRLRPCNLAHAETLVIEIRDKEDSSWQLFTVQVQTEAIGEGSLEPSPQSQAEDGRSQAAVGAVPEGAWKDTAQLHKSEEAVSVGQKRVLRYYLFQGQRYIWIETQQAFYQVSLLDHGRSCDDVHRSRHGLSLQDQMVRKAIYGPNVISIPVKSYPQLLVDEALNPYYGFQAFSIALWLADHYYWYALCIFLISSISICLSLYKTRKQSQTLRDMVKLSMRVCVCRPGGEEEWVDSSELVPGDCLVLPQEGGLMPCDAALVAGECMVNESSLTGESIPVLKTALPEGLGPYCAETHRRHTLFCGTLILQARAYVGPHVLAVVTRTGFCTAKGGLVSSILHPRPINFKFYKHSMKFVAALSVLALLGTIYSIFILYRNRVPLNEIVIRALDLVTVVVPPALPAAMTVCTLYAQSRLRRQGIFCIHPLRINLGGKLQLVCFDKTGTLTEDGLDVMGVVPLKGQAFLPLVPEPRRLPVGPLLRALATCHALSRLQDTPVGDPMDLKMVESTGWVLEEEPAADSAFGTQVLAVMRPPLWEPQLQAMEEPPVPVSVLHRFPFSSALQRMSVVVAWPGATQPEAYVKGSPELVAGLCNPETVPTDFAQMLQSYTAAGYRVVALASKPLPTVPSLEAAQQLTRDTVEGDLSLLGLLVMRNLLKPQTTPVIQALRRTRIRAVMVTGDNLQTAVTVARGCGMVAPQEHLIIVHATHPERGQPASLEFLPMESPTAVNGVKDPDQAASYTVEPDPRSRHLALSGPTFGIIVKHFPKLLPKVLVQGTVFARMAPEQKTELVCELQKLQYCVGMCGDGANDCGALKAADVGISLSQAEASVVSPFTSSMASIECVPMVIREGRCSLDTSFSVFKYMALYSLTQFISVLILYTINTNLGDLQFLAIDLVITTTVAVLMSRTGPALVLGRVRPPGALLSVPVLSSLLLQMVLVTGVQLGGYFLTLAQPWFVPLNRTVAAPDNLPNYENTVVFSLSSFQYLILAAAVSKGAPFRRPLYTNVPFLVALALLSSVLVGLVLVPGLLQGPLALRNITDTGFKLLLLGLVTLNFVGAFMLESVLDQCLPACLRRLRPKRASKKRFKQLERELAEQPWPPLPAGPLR

The chains behind the UniProt entries cited, without tags or fusion partners.
UniProt P49815: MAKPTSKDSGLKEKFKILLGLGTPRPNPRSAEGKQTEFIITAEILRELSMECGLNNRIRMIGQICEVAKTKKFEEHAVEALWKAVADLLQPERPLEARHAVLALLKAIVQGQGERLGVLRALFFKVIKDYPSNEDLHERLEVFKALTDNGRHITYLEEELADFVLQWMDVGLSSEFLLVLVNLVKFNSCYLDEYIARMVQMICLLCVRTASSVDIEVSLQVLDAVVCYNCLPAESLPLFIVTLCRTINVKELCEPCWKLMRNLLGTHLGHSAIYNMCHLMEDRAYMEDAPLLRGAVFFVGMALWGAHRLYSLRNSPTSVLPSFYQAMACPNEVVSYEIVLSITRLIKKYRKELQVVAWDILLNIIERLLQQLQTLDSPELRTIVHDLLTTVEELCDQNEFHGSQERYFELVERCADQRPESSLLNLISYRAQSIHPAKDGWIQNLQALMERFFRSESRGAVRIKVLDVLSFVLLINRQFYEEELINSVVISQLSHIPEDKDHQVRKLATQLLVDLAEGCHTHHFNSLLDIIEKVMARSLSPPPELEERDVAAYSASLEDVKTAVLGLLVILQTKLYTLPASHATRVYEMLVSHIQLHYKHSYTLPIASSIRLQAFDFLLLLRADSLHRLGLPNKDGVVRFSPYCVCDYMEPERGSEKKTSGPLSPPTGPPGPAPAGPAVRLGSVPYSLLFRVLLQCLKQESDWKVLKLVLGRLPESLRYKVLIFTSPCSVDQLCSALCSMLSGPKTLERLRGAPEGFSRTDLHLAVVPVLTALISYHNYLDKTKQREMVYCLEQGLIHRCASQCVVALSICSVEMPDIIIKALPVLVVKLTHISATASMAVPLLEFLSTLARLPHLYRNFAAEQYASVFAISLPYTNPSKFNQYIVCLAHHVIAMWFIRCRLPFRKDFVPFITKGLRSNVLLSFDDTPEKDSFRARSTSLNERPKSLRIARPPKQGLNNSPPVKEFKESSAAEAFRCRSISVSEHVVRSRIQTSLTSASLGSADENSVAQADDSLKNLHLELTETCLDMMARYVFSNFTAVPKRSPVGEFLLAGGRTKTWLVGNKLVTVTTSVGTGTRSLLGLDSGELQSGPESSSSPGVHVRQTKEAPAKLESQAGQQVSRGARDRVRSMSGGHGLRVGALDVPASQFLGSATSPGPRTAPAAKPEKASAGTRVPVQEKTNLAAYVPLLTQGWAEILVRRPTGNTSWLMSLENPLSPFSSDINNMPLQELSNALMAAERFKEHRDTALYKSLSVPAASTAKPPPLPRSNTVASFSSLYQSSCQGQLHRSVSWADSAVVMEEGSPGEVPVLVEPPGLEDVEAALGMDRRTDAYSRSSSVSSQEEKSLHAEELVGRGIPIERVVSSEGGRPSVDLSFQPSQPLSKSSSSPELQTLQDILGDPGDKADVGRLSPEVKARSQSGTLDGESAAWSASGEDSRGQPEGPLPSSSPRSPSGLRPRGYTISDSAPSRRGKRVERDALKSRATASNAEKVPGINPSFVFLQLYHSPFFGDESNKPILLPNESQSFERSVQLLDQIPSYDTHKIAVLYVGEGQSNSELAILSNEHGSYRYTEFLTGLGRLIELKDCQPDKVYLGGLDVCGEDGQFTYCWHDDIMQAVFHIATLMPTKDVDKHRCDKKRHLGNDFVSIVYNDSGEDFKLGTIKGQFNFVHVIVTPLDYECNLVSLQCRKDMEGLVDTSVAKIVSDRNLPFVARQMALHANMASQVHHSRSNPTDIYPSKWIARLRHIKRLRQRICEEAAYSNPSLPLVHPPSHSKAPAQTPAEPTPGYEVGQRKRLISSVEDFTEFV
UniProt O75592: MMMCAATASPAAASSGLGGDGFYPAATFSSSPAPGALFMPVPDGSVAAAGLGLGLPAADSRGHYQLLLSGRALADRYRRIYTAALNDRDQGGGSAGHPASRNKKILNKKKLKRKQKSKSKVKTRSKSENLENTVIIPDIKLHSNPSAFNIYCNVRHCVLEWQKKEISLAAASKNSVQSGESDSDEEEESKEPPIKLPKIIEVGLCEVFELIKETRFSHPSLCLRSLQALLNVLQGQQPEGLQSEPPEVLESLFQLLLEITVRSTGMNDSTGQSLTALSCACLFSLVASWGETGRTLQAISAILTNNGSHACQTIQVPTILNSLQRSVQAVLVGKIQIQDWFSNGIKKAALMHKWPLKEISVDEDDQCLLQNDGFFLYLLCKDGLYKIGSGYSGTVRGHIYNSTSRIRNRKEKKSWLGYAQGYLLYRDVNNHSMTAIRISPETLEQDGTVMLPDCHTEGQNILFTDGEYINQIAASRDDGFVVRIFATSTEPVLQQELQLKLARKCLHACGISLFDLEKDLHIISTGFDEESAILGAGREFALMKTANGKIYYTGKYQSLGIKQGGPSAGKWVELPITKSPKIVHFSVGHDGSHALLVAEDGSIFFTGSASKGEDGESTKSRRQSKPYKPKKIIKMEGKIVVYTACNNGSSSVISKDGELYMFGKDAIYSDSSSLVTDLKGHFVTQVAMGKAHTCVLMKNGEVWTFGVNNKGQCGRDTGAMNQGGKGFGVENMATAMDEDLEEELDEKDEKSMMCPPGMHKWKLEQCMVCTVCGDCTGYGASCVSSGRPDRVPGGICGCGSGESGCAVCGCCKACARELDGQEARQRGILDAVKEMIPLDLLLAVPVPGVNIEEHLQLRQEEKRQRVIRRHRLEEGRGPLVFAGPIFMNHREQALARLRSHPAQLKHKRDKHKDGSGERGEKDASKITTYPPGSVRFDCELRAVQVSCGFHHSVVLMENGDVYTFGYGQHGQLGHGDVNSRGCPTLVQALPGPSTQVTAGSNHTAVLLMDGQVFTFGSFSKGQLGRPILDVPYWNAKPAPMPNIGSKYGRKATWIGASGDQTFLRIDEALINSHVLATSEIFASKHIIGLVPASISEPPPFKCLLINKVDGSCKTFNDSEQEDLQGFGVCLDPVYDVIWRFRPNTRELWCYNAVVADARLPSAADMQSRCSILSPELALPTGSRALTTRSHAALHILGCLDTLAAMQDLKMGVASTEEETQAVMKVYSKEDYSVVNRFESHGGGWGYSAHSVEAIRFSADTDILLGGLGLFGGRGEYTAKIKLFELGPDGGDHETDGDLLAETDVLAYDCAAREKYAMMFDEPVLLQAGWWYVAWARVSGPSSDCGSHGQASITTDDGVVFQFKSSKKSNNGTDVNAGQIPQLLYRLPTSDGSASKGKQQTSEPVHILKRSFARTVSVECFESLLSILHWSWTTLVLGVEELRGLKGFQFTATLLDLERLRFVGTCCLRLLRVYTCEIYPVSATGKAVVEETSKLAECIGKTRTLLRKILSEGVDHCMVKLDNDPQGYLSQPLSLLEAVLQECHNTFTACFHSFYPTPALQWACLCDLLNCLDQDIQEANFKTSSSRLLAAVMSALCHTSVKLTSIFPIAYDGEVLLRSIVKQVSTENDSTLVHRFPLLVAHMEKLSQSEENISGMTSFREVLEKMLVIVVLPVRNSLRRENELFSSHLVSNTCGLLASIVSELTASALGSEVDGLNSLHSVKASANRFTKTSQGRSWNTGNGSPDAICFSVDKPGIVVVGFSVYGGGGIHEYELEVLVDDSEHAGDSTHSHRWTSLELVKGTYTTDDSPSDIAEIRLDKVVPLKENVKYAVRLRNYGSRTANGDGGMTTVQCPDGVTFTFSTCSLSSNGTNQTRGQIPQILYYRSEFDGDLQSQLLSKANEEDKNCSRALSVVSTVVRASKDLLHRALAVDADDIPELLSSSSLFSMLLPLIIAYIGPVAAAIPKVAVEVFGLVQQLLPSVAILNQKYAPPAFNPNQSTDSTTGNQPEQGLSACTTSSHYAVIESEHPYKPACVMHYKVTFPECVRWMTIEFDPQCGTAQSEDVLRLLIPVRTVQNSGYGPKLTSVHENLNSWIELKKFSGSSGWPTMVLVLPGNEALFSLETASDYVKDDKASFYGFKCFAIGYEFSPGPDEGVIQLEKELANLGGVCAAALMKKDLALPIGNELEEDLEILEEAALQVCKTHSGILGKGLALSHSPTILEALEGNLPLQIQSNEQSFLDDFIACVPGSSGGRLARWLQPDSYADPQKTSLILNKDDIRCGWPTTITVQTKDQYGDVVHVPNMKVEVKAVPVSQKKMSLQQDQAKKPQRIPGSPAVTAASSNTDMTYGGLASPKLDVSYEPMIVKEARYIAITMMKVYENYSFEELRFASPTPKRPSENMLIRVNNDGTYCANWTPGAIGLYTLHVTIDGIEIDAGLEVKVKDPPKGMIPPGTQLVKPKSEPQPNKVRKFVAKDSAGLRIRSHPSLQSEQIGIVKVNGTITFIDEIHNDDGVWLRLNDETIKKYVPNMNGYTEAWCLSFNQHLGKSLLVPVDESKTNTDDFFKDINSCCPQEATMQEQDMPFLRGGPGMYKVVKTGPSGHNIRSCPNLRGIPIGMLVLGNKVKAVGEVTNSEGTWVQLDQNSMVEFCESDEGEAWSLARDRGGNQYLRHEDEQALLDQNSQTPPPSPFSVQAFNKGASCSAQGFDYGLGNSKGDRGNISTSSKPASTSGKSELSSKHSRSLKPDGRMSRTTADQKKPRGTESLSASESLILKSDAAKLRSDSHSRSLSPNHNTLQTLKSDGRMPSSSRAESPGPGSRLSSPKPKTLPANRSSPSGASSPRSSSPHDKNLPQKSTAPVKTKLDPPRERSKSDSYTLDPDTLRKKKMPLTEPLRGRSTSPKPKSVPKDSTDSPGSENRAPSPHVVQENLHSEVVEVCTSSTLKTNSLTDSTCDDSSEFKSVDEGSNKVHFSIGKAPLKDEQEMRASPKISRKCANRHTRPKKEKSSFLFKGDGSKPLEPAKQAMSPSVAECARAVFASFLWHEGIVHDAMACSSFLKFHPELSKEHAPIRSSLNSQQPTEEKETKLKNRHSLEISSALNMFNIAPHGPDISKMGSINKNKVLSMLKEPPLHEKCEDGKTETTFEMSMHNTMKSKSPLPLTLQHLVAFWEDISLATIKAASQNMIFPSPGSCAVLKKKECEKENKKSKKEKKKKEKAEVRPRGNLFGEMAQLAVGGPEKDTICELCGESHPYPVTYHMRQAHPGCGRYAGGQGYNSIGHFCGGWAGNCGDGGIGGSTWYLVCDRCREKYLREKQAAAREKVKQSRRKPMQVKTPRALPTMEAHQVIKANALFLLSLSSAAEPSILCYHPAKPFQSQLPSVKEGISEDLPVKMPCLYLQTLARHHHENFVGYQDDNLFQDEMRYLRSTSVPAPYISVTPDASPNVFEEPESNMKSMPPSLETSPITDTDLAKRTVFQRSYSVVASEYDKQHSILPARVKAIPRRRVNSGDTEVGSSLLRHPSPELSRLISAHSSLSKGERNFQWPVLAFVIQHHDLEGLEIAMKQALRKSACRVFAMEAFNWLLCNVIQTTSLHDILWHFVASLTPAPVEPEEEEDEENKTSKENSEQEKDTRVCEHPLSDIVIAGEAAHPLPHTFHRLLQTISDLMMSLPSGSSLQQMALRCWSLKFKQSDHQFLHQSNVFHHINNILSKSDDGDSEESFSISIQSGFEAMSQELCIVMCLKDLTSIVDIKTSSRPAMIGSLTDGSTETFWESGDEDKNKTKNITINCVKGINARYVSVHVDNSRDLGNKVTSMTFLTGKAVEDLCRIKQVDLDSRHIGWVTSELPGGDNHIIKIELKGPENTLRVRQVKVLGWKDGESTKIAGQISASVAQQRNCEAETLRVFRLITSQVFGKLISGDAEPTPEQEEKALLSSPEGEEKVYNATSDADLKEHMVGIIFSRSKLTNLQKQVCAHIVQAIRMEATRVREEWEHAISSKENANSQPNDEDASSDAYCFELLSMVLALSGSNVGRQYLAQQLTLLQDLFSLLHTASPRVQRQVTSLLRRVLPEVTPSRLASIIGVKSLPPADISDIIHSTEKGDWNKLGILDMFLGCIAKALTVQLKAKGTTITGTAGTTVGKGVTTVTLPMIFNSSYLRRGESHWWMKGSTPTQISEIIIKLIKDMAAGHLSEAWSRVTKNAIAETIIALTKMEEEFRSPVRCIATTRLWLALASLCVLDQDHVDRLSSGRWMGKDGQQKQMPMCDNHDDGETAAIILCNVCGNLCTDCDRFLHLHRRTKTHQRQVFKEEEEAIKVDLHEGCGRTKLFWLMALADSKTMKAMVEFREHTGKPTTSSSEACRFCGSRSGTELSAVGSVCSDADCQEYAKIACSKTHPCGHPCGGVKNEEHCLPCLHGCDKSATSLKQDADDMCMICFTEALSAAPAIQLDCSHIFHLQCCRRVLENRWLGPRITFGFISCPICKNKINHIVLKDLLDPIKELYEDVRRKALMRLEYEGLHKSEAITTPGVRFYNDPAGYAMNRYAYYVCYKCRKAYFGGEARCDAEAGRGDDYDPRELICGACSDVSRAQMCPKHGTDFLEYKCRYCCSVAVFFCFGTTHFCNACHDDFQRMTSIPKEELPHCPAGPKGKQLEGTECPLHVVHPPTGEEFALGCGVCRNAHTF

[2] = biological target: Tuberous Sclerosis Complex 2 (TSC2) (human (endogenous in HeLa)) (UniProt P49815); assay: co-IP; endogenous proteins immunoprecipitated from cleared lysates (20 mM Tris-HCl pH 7.2, 150 mM NaCl, 2 mM MgCl2, 0.5% NP-40), antibody overnight at 4 °C, Dynabeads-protein G, three washes, western blot; ATP13A2 IP (Fig. 4b); TSC2 IP from control and ATP13A2-knockdown HeLa cells (Fig. 4i)
[3] = biological target: T1, ATP13A2 (human (endogenous in HeLa)); assay: as above

- binding [1]: binds
- binding [2]: binds
- binding [3]: binds
Substance: MYCBP2 (MYC-Binding Protein 2) (from UniProt O75592 1-4678)

Reference: publication PMC4906231
